Compound in this assay: Nc1ncnc2c1ncn2[C@@H]1O[C@H](COP(=O)(O)OP(=O)(O)NP(=O)(O)O)[C@@H](O)[C@H]1O [adenylyl imidodiphosphate]
The experiment in a line: NP40-soluble protein abundance relative to vehicle (solubility fold change) (ratio); higher = more soluble protein in presence of AMP-PNP. The method in brief:
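Jurkat crude lysate prepared with a Dounce homogeniser was treated at eight concentrations spanning 0.1 to 10 mM, 10 min at room temperature then 3 min at 37 °C. Solubilisation with 0.8% NP40 and benzonase and ultracentrifugation preceded TMT labelling of the supernatant for LC-MS/MS. Fold change against the detergent-processed vehicle was determined per replicate from vsn-normalised intensities, across three independent experiments.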

Sequences of proteins named here, by UniProt entry; tags and fusion partners are left off. A change or cut given only in a name is not applied to a line headed by its entry.
UniProt Q5JRX3: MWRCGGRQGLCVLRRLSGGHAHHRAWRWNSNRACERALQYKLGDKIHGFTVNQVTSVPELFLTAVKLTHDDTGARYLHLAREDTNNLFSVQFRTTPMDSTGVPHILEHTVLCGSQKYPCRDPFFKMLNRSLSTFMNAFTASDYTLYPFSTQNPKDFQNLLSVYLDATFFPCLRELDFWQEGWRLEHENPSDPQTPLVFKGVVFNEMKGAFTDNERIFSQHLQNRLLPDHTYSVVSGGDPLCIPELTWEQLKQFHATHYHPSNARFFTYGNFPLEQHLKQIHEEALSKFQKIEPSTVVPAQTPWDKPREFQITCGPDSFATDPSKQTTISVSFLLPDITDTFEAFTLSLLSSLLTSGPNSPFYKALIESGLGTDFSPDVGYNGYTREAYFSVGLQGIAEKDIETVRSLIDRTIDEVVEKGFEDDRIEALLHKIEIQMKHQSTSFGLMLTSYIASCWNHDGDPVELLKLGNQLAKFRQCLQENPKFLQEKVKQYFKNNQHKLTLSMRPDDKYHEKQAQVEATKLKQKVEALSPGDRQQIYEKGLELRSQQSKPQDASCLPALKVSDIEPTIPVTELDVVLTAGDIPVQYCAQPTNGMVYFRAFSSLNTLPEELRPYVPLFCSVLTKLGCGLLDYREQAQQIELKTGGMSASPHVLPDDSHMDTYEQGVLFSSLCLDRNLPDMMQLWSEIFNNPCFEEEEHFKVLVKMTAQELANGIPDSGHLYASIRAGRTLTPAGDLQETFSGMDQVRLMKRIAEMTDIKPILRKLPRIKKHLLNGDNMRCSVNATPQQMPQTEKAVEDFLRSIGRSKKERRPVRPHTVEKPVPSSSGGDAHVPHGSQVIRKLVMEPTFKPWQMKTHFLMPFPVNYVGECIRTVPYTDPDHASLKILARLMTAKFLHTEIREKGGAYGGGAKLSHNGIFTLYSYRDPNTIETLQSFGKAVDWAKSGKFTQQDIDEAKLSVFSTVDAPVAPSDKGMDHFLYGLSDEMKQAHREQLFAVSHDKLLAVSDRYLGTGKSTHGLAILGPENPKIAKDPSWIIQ
UniProt Q15121, whole entry: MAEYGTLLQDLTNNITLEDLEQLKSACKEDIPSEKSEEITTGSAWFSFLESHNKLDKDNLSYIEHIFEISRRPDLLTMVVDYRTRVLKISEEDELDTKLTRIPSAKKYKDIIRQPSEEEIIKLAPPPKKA
UniProt Q27J81, whole entry: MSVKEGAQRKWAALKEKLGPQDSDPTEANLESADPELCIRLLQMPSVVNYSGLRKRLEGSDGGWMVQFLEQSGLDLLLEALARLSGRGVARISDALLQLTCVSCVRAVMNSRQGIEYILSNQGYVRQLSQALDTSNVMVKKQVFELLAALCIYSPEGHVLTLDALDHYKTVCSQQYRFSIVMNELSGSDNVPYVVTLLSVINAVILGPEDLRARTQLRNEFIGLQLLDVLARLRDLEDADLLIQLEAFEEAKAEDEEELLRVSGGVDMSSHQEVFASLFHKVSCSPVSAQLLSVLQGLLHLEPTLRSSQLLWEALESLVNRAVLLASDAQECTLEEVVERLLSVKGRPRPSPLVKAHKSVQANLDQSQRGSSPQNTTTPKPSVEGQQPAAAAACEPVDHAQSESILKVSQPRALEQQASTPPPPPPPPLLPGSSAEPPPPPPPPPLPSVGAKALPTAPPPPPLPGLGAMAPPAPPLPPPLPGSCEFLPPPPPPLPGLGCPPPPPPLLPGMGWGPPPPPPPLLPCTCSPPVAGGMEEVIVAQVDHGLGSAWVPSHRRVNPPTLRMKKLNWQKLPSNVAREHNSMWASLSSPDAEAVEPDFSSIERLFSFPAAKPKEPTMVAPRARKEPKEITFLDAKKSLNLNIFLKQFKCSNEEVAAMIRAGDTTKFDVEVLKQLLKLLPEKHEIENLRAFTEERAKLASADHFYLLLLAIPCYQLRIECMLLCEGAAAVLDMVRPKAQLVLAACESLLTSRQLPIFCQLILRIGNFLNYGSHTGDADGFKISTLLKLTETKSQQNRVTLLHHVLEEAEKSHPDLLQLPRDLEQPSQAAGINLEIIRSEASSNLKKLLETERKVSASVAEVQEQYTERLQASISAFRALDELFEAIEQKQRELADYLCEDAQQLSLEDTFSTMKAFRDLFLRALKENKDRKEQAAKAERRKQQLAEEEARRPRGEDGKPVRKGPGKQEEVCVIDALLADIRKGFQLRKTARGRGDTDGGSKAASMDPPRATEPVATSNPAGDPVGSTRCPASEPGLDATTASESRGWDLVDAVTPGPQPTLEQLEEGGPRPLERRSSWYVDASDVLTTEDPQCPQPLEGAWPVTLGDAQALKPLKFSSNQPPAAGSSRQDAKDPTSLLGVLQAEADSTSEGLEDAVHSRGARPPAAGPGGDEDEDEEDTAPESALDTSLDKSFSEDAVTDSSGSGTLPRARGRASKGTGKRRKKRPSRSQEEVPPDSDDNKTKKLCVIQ
UniProt Q8IVH4: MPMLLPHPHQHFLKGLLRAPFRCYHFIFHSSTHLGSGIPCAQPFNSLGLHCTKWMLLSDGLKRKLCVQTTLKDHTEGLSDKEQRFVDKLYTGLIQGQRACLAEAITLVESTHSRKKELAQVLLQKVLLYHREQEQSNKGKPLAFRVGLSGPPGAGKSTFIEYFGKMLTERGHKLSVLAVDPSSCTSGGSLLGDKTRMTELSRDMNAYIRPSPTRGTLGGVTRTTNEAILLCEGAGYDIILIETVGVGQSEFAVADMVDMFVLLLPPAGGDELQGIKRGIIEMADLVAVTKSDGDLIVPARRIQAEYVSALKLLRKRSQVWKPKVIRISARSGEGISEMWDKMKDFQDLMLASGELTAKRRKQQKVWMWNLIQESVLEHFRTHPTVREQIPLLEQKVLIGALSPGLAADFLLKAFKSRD
UniProt Q58FF6, whole entry: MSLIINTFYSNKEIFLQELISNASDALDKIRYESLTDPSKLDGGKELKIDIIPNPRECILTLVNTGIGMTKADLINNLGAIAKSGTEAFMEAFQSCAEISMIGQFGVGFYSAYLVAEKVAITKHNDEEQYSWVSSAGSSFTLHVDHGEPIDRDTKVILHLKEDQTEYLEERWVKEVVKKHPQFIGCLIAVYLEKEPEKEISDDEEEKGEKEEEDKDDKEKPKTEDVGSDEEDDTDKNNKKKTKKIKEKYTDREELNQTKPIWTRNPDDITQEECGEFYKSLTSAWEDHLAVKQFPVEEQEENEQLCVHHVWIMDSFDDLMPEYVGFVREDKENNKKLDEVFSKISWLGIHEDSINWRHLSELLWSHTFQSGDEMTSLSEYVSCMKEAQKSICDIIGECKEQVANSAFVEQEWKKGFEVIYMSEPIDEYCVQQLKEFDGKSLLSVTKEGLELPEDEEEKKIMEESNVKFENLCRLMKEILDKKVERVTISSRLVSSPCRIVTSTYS
UniProt Q5T2E6: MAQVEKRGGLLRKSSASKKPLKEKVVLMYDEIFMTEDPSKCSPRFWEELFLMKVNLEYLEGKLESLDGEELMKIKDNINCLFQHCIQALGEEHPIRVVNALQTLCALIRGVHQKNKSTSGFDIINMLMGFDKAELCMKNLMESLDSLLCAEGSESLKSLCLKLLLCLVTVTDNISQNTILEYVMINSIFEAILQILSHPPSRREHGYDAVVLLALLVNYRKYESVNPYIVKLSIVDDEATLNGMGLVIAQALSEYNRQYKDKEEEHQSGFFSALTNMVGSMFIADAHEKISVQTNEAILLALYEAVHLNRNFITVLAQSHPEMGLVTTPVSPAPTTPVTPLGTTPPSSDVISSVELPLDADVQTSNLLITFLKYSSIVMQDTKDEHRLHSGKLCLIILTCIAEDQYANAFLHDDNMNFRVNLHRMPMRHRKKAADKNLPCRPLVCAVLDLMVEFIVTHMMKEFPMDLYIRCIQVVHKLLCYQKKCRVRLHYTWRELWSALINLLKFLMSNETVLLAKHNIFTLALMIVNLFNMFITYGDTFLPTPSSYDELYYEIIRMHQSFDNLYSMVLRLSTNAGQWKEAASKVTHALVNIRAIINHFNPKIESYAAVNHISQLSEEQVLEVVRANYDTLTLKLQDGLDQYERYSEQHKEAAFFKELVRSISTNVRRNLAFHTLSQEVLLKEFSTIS
UniProt Q4G0N4: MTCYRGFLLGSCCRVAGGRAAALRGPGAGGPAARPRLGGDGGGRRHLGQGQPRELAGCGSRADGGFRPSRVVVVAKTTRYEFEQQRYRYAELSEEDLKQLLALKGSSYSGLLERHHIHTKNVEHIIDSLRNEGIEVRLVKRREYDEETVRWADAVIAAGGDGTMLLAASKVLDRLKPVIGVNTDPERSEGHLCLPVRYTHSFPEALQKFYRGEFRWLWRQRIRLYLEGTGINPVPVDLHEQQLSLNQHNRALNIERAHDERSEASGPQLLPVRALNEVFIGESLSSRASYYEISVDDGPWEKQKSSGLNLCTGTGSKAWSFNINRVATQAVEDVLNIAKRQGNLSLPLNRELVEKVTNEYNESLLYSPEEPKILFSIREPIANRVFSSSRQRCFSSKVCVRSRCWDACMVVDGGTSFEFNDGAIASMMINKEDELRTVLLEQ
UniProt Q5JSH3: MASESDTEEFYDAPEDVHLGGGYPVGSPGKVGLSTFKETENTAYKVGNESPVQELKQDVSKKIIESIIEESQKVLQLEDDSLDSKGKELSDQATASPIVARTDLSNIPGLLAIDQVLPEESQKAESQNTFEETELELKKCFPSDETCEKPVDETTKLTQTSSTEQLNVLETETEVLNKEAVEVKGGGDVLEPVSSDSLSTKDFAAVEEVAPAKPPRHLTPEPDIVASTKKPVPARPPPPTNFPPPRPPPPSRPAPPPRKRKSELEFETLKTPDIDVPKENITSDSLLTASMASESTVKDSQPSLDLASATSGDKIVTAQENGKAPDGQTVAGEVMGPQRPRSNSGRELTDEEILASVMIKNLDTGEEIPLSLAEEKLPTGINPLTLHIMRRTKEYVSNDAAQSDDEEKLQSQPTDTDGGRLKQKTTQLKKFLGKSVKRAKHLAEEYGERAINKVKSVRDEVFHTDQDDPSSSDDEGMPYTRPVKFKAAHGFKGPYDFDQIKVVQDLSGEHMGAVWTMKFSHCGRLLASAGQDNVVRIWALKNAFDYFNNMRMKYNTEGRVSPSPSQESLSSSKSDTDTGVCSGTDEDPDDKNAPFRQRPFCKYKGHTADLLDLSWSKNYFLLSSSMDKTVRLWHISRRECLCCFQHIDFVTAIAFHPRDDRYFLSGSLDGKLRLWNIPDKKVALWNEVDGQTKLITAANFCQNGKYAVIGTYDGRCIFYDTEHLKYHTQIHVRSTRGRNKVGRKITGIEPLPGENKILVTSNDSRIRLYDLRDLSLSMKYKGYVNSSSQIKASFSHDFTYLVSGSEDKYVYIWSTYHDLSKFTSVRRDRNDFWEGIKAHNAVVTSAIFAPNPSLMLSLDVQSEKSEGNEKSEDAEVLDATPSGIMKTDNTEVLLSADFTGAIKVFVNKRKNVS
UniProt Q3SXM5: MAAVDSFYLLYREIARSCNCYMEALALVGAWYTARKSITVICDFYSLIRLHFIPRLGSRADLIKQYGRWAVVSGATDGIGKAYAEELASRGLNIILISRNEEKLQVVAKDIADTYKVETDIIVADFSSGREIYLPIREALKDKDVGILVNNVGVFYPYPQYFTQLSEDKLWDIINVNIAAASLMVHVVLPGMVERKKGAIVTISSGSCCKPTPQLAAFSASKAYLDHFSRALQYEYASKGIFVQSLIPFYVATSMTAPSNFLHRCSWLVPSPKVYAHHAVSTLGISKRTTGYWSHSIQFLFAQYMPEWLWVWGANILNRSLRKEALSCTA
UniProt Q59H18: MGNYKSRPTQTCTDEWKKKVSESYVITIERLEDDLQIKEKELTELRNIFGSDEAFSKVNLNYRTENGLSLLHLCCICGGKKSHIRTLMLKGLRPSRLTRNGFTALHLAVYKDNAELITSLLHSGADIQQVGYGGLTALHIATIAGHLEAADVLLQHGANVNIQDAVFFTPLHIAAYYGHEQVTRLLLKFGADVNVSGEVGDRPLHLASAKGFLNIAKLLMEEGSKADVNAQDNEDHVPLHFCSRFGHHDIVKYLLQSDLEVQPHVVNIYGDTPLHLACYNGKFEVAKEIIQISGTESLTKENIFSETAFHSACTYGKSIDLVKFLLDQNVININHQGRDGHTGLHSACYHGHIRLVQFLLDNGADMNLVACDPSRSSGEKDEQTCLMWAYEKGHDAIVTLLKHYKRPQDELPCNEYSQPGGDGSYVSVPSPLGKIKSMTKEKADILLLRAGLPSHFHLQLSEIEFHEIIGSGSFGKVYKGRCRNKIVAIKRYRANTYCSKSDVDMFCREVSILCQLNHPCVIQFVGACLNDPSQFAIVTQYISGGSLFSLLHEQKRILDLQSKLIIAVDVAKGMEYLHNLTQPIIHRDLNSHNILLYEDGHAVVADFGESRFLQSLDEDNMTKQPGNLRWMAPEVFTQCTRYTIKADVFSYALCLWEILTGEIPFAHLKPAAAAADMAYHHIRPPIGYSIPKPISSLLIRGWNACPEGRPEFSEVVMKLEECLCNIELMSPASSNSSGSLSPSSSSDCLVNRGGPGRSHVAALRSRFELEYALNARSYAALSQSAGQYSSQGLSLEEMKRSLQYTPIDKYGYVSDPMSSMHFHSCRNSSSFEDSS

± gives the standard deviation of the averaged measurements. The list shows a part of the results, in another mix than the full data. Small differences around the control level are noise.

With TOMM20 (UniProt Q15388), the NP40-soluble protein abundance by setting is: (concentration: 0.1mM) 0.991 ± 0.041; (concentration: 0.5mM) 1.06 ± 0.13.
Turning to UniProt Q5JRX3 and related entries, the NP40-soluble protein abundance by setting is: (concentration: 0.1mM) 0.9983 ± 0.0064; (concentration: 0.5mM) 1.006 ± 0.0088.
With UniProt Q16513 and related entries, the NP40-soluble protein abundance runs as follows: (concentration: 0.1mM) 0.985 ± 0.019; (concentration: 0.5mM) 0.985 ± 0.055.
On the same counts, the results for UniProt Q15121 and related entries are 0.994 ± 0.029 and 1 ± 0.011.
On to FAM102B (UniProt Q5T8I3), for which the NP40-soluble protein abundance is 0.977 ± 0.054 (concentration: 0.1mM) and 1.02 ± 0.066 (concentration: 0.5mM).
The matching figures for UniProt Q16401 and related entries: 1.05 ± 0.041 and 1.03 ± 0.052.
On the same counts, the results for UBE2S (UniProt Q16763) are 1.04 ± 0.034 and 1.03 ± 0.011.
The matching figures for “Q5JTV1 and related entries (UniProt Q9UKD1)”: 0.991 ± 0.027 and 0.977 ± 0.048.
For UniProt Q27J81 and related entries, the NP40-soluble protein abundance reads like this: (concentration: 0.1mM) 1.01 ± 0.011; (concentration: 0.5mM) 1.03 ± 0.059.
Regarding UniProt Q2M296 and related entries, the NP40-soluble protein abundance runs as follows: (concentration: 0.1mM) 0.978 ± 0.014; (concentration: 0.5mM) 0.98 ± 0.0079.
On the same counts, the results for “Q495G5 and related entries (UniProt Q8IVH4)” are 0.974 ± 0.031 and 0.985 ± 0.045.
Consider UniProt Q5T1M5 and related entries, for which the NP40-soluble protein abundance is, setting by setting: (concentration: 0.1mM) 0.98 ± 0.015; (concentration: 0.5mM) 0.993 ± 0.026.
Turning to LLGL1 (UniProt Q15334), the NP40-soluble protein abundance (concentration: 0.1mM) stood at 1.05 ± 0.017 and the NP40-soluble protein abundance (concentration: 0.5mM) was 0.961 ± 0.019.
The matching figures for CCDC58 (UniProt Q4VC31): 0.983 ± 0.059 and 1.02 ± 0.047.
Consider UniProt Q2KHT3 and related entries, for which the NP40-soluble protein abundance is 0.921 ± 0.049 (concentration: 0.1mM) and 0.936 ± 0.049 (concentration: 0.5mM).
On the same counts, the results for ACSF3 (UniProt Q4G176) are 1.02 ± 0.042 and 0.998 ± 0.1.
The matching figures for UBE3C (UniProt Q15386): 1.01 ± 0.036 and 0.965 ± 0.042.
On to SF3A1 (UniProt Q15459), for which the NP40-soluble protein abundance (concentration: 0.1mM) amounted to 0.995 ± 0.022 and the NP40-soluble protein abundance (concentration: 0.5mM) amounted to 1.02 ± 0.024.
On the same counts, the results for GNPTAB (UniProt Q3T906) are 1.02 ± 0.029 and 1.04 ± 0.031.
On the same counts, the results for UniProt Q4G0J3 and related entries are 1.01 ± 0.069 and 1.02 ± 0.051.
The matching figures for UniProt Q16611 and related entries: 1 ± 0.036 and 0.962 ± 0.059.
For the target UniProt Q5JSP0 and related entries, the NP40-soluble protein abundance runs as follows: (concentration: 0.1mM) 1.02 ± 0.026; (concentration: 0.5mM) 1.01 ± 0.036.
On the same counts, the results for UniProt Q5MIZ7 and related entries are 0.989 ± 0.03 and 1 ± 0.044.
Regarding FSCN1 (UniProt Q16658), the NP40-soluble protein abundance (concentration: 0.1mM) is 0.987 ± 0.039 and the NP40-soluble protein abundance (concentration: 0.5mM) is 1 ± 0.056.
The matching figures for HSP90AB4P (UniProt Q58FF6): 0.969 ± 0.074 and 1.04 ± 0.065.
As to UniProt Q15813 and related entries, the NP40-soluble protein abundance reads like this: (concentration: 0.1mM) 1.003 ± 0.0055; (concentration: 0.5mM) 1.005 ± 0.0025.
As for UniProt Q5R372 and related entries, the NP40-soluble protein abundance (concentration: 0.1mM) amounted to 0.952 ± 0.032 and the NP40-soluble protein abundance (concentration: 0.5mM) stood at 0.9412 ± 0.0094.
On to TP53I3 (UniProt Q53FA7), for which the NP40-soluble protein abundance by setting is: (concentration: 0.1mM) 0.967 ± 0.01; (concentration: 0.5mM) 1.01 ± 0.033.
As for UniProt Q5T2E6 and related entries, the NP40-soluble protein abundance amounted to 1 ± 0.047 (concentration: 0.1mM) and 0.996 ± 0.038 (concentration: 0.5mM).
The matching figures for UniProt Q15291 and related entries: 1.02 ± 0.047 and 1.02 ± 0.053.
Turning to UniProt Q5FWF5, the NP40-soluble protein abundance (concentration: 0.1mM) came out at 0.9726 ± 0.0029 and the NP40-soluble protein abundance (concentration: 0.5mM) was determined as 0.9922 ± 0.0083.
The matching figures for UniProt Q15223: 0.989 ± 0.037 and 1.01 ± 0.038.
For the target UniProt Q4AE62 and related entries, the NP40-soluble protein abundance is, setting by setting: (concentration: 0.1mM) 1.01 ± 0.037; (concentration: 0.5mM) 0.988 ± 0.026.
On to ESCO2 (UniProt Q56NI9), for which the NP40-soluble protein abundance is, setting by setting: (concentration: 0.1mM) 1.007 ± 0.0084; (concentration: 0.5mM) 1.009 ± 0.0088.
Take UniProt Q562F6 and related entries: the NP40-soluble protein abundance by setting is: (concentration: 0.1mM) 1 ± 0.031; (concentration: 0.5mM) 0.999 ± 0.021.
On the same counts, the results for UniProt Q5TG30 are 1.07 ± 0.015 and 0.985 ± 0.043.
With UniProt Q53EL6 and related entries, the NP40-soluble protein abundance came to 1.03 ± 0.048 (concentration: 0.1mM) and 1.07 ± 0.056 (concentration: 0.5mM).
The matching figures for UniProt Q15669: 0.981 ± 0.019 and 0.987 ± 0.0086.
UniProt Q15910 and related entries: the NP40-soluble protein abundance stood at 0.995 ± 0.037 (concentration: 0.1mM) and 1.01 ± 0.042 (concentration: 0.5mM).
UniProt Q5GLZ8 and related entries: the NP40-soluble protein abundance runs as follows: (concentration: 0.1mM) 1 ± 0.052; (concentration: 0.5mM) 0.997 ± 0.071.
The matching figures for UniProt Q4G0N4: 0.988 ± 0.025 and 0.964 ± 0.038.
As for C2orf76 (UniProt Q3KRA6), the NP40-soluble protein abundance was 0.99 ± 0.042 (concentration: 0.1mM) and 0.98 ± 0.017 (concentration: 0.5mM).
With TRIP4 (UniProt Q15650), the NP40-soluble protein abundance turned out to be 0.989 ± 0.017 (concentration: 0.1mM) and 0.995 ± 0.039 (concentration: 0.5mM).
The matching figures for UniProt Q5JSH3 and related entries: 0.9859 ± 0.0088 and 0.987 ± 0.046.
Consider HSDL1 (UniProt Q3SXM5), for which the NP40-soluble protein abundance runs as follows: (concentration: 0.1mM) 1.02 ± 0.038; (concentration: 0.5mM) 0.954 ± 0.12.
In the case of UniProt Q16630-2|Q16630, the NP40-soluble protein abundance amounted to 1.04 ± 0.013 (concentration: 0.1mM) and 1.05 ± 0.029 (concentration: 0.5mM).
On the same counts, the results for “Q59H18-1|Q59H18-3|Q59H18-4|V9GXZ4 (UniProt V9GXZ4+Q59H18)” are 1.06 ± 0.055 and 0.963 ± 0.034.
UniProt Q3YEC7: the NP40-soluble protein abundance was found to be 1 ± 0.03 (concentration: 0.1mM) and 0.998 ± 0.035 (concentration: 0.5mM).
On the same counts, the results for VMA21 (UniProt Q3ZAQ7) are 0.985 ± 0.025 and 0.9425 ± 0.0084.
In the case of UniProt Q5T011 and related entries, the NP40-soluble protein abundance reads like this: (concentration: 0.1mM) 0.815 ± 0.029; (concentration: 0.5mM) 0.792 ± 0.046.
As to QPRT (UniProt Q15274), the NP40-soluble protein abundance (concentration: 0.1mM) came to 0.98 ± 0.015 and the NP40-soluble protein abundance (concentration: 0.5mM) amounted to 0.974 ± 0.042.
Take “Q5JWM4 and related entries (UniProt Q9H6P5)”: the NP40-soluble protein abundance by setting is: (concentration: 0.1mM) 0.983 ± 0.046; (concentration: 0.5mM) 0.991 ± 0.029.
The matching figures for UniProt Q16659: 1.01 ± 0.035 and 1.01 ± 0.015.
Take TRADD (UniProt Q15628): the NP40-soluble protein abundance was found to be 0.998 ± 0.015 (concentration: 0.1mM) and 0.9983 ± 0.0074 (concentration: 0.5mM).
The matching figures for UniProt Q5T8P6 and related entries: 1.02 ± 0.03 and 1.03 ± 0.027.
On the same counts, the results for UniProt Q16512 and related entries are 1.01 ± 0.039 and 1.03 ± 0.05.
As to MAPRE1 (UniProt Q15691), the NP40-soluble protein abundance (concentration: 0.1mM) was determined as 0.983 ± 0.045 and the NP40-soluble protein abundance (concentration: 0.5mM) stood at 1.07 ± 0.14.

Values taken from the supplement of paper PMC6411743.
